Our source for the binding values is PMC7653252.

Amino acid sequences for entries named in this document (tags omitted).
UniProt Q96RE9: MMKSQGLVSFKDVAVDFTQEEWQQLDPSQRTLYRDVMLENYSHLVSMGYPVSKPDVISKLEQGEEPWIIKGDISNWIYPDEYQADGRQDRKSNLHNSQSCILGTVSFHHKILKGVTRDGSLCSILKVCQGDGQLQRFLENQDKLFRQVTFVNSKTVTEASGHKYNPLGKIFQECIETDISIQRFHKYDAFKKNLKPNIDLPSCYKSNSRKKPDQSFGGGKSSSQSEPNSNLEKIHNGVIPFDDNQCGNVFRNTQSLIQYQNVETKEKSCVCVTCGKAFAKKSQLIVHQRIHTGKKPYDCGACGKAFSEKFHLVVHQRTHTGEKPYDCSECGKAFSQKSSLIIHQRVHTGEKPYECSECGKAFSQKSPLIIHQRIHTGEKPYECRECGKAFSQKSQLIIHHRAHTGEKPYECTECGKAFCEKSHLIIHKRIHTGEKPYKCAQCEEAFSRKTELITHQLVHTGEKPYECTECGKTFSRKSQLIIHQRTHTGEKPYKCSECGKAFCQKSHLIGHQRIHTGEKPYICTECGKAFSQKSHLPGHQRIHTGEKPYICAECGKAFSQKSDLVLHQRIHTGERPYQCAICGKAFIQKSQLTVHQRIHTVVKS
UniProt O00716: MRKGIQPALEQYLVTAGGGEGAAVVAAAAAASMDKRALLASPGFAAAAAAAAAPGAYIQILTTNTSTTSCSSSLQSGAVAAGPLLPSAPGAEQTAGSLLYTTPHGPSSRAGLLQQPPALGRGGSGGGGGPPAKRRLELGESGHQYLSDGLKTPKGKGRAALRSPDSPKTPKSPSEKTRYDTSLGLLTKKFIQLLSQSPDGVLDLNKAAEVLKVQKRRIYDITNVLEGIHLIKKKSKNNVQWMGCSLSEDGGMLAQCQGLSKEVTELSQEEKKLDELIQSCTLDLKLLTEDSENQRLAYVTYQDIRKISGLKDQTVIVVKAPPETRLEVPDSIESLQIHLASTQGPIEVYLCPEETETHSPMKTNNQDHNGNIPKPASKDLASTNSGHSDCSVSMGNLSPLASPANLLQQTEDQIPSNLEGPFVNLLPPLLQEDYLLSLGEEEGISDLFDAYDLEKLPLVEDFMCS

The target in this experiment is ZNF300 (human) (UniProt Q96RE9). Put plainly: co-IP; FLAG-ZNF300 expressed in A549 cells; pre-cleared whole-cell lysates incubated with rabbit anti-Flag antibody; precipitate immunoblotted. In general terms: In western blotting, separated proteins are transferred to a membrane and probed.

Results are given in words; binding and its absence hold for the method and conditions named. In cells and extracts the contact can be indirect. Some binding calls cover weakened binding; strength is not graded here.

Consider E2F3 (from UniProt O00716 1-465), for which the binding result was “binds”.
